# Laboratory results taken from PubChem BioAssay AID624297 (National Center for Advancing Translational Sciences (NCATS), 2012).
# The campaign covered roughly 340,000 compounds. About 6,200 (1.8%) were called active. The shares of active, inactive and inconclusive entries below differ from those in the screen. The call rests on the fitted dose curve; in most records, active means well fitted activation curve with a large enough effect; inconclusive means small, poorly fitted or top-dose-only effect; inactive means no such curve, though single readings can be large or run the other way. Potencies beside an inconclusive call are fits to weak or partial responses and may not hold up.
# Assay: A quantitative high throughput screen for small molecules that induce DNA re-replication in SW480 colon adenocarcinoma cells. Further: nearly all actives have a fitted effect of over 55% in size. On re-replication activation: % of control where 0% means no effect.
# Conditions: Hoechst DNA content imaging, 48 h; re-replication activation: at 46.1 µM (top of the series)
# In short: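 Hoechst fluorescence of nuclei (405 nm excitation, 500-530 nm emission) measured by plate-scanning imager after 48 hr compound exposure at 37 C; re-replication scored as increased number of nuclei with elevated intensity.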
# Potency means the concentration at half of the fitted maximal effect.
SMILES,Potency,re-replication activation
N/C(=N\OC(=O)c1ccc(Cl)cc1[N+](=O)[O-])c1ccccn1,"inconclusive: 29.1 µM [activator, single point]",–
COC(=O)c1cnn(-c2ccc(F)cc2F)c1/C=N/NC(=S)NC(C)(C)C,inactive,–
CCOC(=O)[C@@H]1[C@H]2COc3ccc(Br)cc3[C@H]2N2C(=O)N(c3ccc(OC)cc3)C(=O)[C@]12C,"inconclusive: 18.4 µM [activator, partial curve, poor fit]",–
Cc1nnc(SCC(=O)NC(C)(C)C)n1NCc1ccc(N(C)C)cc1,–,inactive: -131% [at 1.84 µM]
COc1ccc(NC(=O)c2cccnc2N2CCCCC2)cc1,inactive,–
Cc1cc(-c2n[nH]c(=S)n2Cc2ccco2)nn1C,inactive,–
Cc1cc(OC(F)F)ccc1NC(=S)NC1CCCC1,"inconclusive: 2.06 µM [activator, partial curve]",–
O=C(CN1C(=O)/C(=C\c2ccc(C(F)(F)F)cc2)Sc2ccccc21)NCc1ccco1,"inconclusive: 23.1 µM [activator, single point]",–
O=C(/C=C/Nc1ccc([N+](=O)[O-])cc1Br)c1cccc2ccccc12,"inconclusive: 0.0651 µM [activator, full curve, poor fit]",–
O=C(COc1ccc(Cl)cc1Cl)Nc1ccc(CN2CCOCC2)cc1,"inconclusive: 0.206 µM [activator, full curve, poor fit]",–
COc1cccc(/C=C/c2ccncc2)c1OC,inactive,–
COc1cccc(NC(=S)N(CCCN2CCCC2)Cc2cccn2Cc2ccc(Cl)cc2)c1,"inconclusive: 16.4 µM [activator, single point]",–
Cc1ccc(NC(=O)NCc2nc3ccccc3n2C)cc1,active: 20.6 µM,–
CC1=C(C(=O)OC2CCCC2)C(c2ccc(C)o2)C2=C(CC(c3cccs3)CC2=O)N1 (stereo unspecified),"inconclusive: 20.6 µM [activator, single point]",–
Cc1ccc(-c2ccc(=O)n(CCC(=O)N3CCN(c4ccccc4)CC3)n2)cc1,"inconclusive: 18.4 µM [activator, partial curve, poor fit]",–
O=C(Nc1ccccc1)c1cccc(S(=O)(=O)Nc2ccccn2)c1,inactive,–
C/C(Cn1nnc([N+](=O)[O-])n1)=N\NC(=O)c1ccccc1Cl,"inconclusive: 18.4 µM [activator, partial curve, poor fit]",–
COc1ccc(N2CCN(C(=O)CN=C3NS(=O)(=O)C(c4ccc(C)cc4)=C3C)CC2)cc1,inactive,–
C/C(=N\NS(=O)(=O)c1ccccc1)c1cc(Cl)cc(Cl)c1O,"inconclusive: 18.4 µM [activator, single point]",–
CC(NC(=O)COc1ccc(/C=N/NC(=O)CO)cc1)c1ccccc1 (stereo unspecified),–,inconclusive: 23.9% [activator]
NS(=O)(=O)c1ccc(NC(=O)COC(=O)CN2C(=O)C3CC=CCC3C2=O)cc1 (stereo unspecified),"inconclusive: 18.4 µM [activator, single point]",–
CCOC(=O)C1=C(CC)Nc2ccccc2N=C1NC(=O)c1ccc(OC)c(S(=O)(=O)N2CCOCC2)c1,inactive,–
Cc1nnc(-c2cnn(C)c2N)n1CCCN1CCOCC1,inactive,–
CCOc1ccc(C(C)=O)cc1CSc1nc(C)cc(C)n1,inactive,–

SMILES,Potency,re-replication activation
CCc1ccccc1Nc1nc(N)nc(CSc2nnc3ccccn23)n1,"inconclusive: 0.146 µM [activator, partial curve, poor fit]",–
Cc1cc(C)c2[nH]c(=O)c(CN(Cc3ccc4c(c3)OCO4)Cc3nnnn3C3CCCC3)cc2c1,inactive,–
COc1cc(S(=O)(=O)N2CCN(c3ccccn3)CC2)ccc1Br,inactive,–
Oc1ccc(C2C=C(c3ccc(F)cc3)Nc3ncnn32)cc1 (stereo unspecified),active: 10.3 µM,–
O=C(O)c1cn(Cc2ccccc2)nc1-c1cccnc1,inactive,–
OC(COc1ccccc1F)CN1CCC(Cc2ccccc2)CC1 (stereo unspecified),"inconclusive: 11.6 µM [activator, single point]",–
O=C(N[C@@H]1C/C=C\C[C@@H](CC(=O)N(CCO)Cc2ccccc2)C(=O)NC[C@H](c2ccccc2)OC1=O)OCC1c2ccccc2-c2ccccc21,"inconclusive: 29.1 µM [activator, single point]",–
COc1ccc(-c2nc3c(-c4ccccc4)cnn3cc2C)cc1F,"inconclusive: 23.1 µM [activator, single point]",–
COc1ccccc1-c1cc(C(=O)N2CCN(c3ccccc3)CC2)no1,inactive,–
CC(=O)n1cc(C(C[N+](=O)[O-])SCCN)c2ccccc21 (stereo unspecified),active: 6.51 µM,–
CC(=O)Nc1ccc(S(=O)(=O)NCCC(=O)Nc2cccc(Cl)c2)cc1,inactive,–
C[C@H](CO)N1C[C@H](C)[C@@H](CN(C)CC2CC2)Oc2c(NC(=O)Cc3ccccc3)cccc2C1=O,"inconclusive: 29.1 µM [activator, single point]",–
CC1(C)Cc2c(sc3ncnc(NN)c23)CO1,–,inconclusive: 61.4% [activator]
CCN(CC)CCC(=O)N1c2ccccc2Sc2ccc(C(F)(F)F)cc21,"inconclusive: 33.5 µM [activator, single point]",–
Cn1c2c(c3ccccc31)CCN(CCCCN1CCN(c3ccccc3)CC1)C2=O,"inconclusive: 29.1 µM [activator, single point]",–
N#CC1=C2N=C(N)c3c(sc4c3CCCCC4)N2C2=C(C(=O)CCC2)C1c1ccccc1 (stereo unspecified),inactive,–
COc1ccccc1OCCNC(=O)C1CCCCC1,"inconclusive: 0.291 µM [activator, full curve, poor fit]",–
O=C(CNC(=O)c1cc(S(=O)(=O)N2CCOCC2)ccc1N1CCCC1)Nc1ccc(F)c(F)c1,inactive,–
Cc1ccc2c(c1)c1c(n2CC(O)CN2CCCCC2C)CCCC1 (stereo unspecified),active: 18.4 µM,–
COCCn1c(=NC(=O)/C=C/c2ccccc2)sc2cc(NC(C)=O)ccc21,inactive,–
CC(C=NNC(=O)C(=O)NN=CC(C)=Cc1ccccc1)=Cc1ccccc1,"inconclusive: 29.1 µM [activator, single point]",–
COc1ccc(CN(C)C(=O)CCN(c2ccccc2)S(=O)(=O)c2ccc(C)cc2)c(OC)c1,"inconclusive: 32.6 µM [activator, partial curve, poor fit]",–
COc1cccc(NC(=O)c2nnn(CCc3ccccc3)c2N)c1,"inconclusive: 25.9 µM [activator, partial curve, poor fit]",–
COc1ccc2cc(C(=O)C3CCCN(C(=O)/C=C/c4ccccn4)C3)ccc2c1 (stereo unspecified),"inconclusive: 29.1 µM [activator, single point]",–

# Look-ups from the entries so far.
# NS(=O)(=O)c1ccc(NC(=O)COC(=O)CN2C(=O)C3CC=CCC3C2=O)cc1 (stereo unspecified) | Potency: inconclusive: 18.4 µM [activator, single point]
# Cc1nnc(SCC(=O)NC(C)(C)C)n1NCc1ccc(N(C)C)cc1 | re-replication activation: inactive: -131% [at 1.84 µM]
# C/C(=N\NS(=O)(=O)c1ccccc1)c1cc(Cl)cc(Cl)c1O | Potency: inconclusive: 18.4 µM [activator, single point]
# CCOc1ccc(C(C)=O)cc1CSc1nc(C)cc(C)n1 | Potency: inactive
# COc1ccc(CN(C)C(=O)CCN(c2ccccc2)S(=O)(=O)c2ccc(C)cc2)c(OC)c1 | Potency: inconclusive: 32.6 µM [activator, partial curve, poor fit]

# (more compounds)

SMILES,Potency,re-replication activation
OCC1(CCOc2ccccc2)CCN(CC2=Cc3cc(Cl)ccc3OC2)CC1,"inconclusive: 29.1 µM [activator, single point]",–
COc1ccc(Nc2nc(N)c(C(=O)c3ccc(OC)cc3)s2)cc1,active: 4.11 µM,–
COc1ccc(F)cc1C(=O)C1CCCN(Cc2cccn2-c2ccccn2)C1 (stereo unspecified),"inconclusive: 29.1 µM [activator, single point]",–
c1ccc(-n2ncc3cccnc32)cc1,"inconclusive: 29.1 µM [activator, single point]",–
CCOC(=O)c1c(NC(=O)COC(=O)CNC(=O)c2ccc(Cl)cc2Cl)sc(C(=O)N(C)C)c1C,"inconclusive: 10.3 µM [activator, single point]",–
CCc1nnc(NC(=O)CSc2ccc(-c3nc4ccc(C)cc4[nH]3)cn2)s1,inactive,–
O=C(Nc1ccccc1)c1nc[nH]c1C(=O)NCCNC(=O)c1[nH]cnc1C(=O)Nc1ccccc1,inactive,–
COc1cc(C#Cc2c(-c3cncn3C)n(C)c3ccc(-c4cnc(OC)nc4)cc23)cc(OC)c1,"inconclusive: 3.66 µM [activator, single point]",–
CCOc1ccc(C(O)(c2ccccc2OC)C(CN2CCCC2)c2ccccc2)cc1 (stereo unspecified),inactive,–
FC(F)(F)c1nnc2c(Sc3ccc(Cl)cc3)nc3ccccc3n12,"inconclusive: 1.46 µM [activator, full curve, poor fit]",–
C=CCN(CC=C)C(=O)C1CCN(S(=O)(=O)c2ccc(-n3cnnn3)cc2)CC1,inactive,–
O=C(Nc1cnn(Cc2ccc(F)cc2)c1)c1cc(-c2ccco2)on1,"inconclusive: 5.17 µM [activator, full curve]",–
CC(C)(C)c1ccc(/C=N/NC(=S)NC2CCCCC2)cc1,"inconclusive: 29.1 µM [activator, single point]",–
COc1ccc(S(=O)(=O)N2CCCCC2)cc1N(C)S(=O)(=O)c1ccccc1,inactive,–
COc1cc(C#CC#CCN2CCCCC2)ccc1O,"inconclusive: 29.1 µM [activator, single point]",–
CN(C)S(=O)(=O)c1ccc(C(=O)NNC(=O)C23CC4CC(CC(C4)C2)C3)cc1,inactive,–
C#CCNC(=O)C1=C[C@@H](c2ccccc2)C[C@@H](OCc2ccc(CO)cc2)O1,"inconclusive: 29.1 µM [activator, single point]",–
Cc1cc(Nc2cccc([N+](=O)[O-])c2)c2cccc(C)c2n1,inactive,–
COC(=O)CC1=C(C(=O)OC)C(c2cccs2)C(C#N)=C(N)O1 (stereo unspecified),inactive,–
CCN(CC)CCC(=O)N1c2ccccc2CCc2ccc(NC(=O)OC)cc21,"inconclusive: 0.184 µM [activator, partial curve, poor fit]",–
CON(C)C(=O)CCC1CCCN1C(=O)OC(C)(C)C (stereo unspecified),inactive,–
S=C(Nc1ccc2nc(-c3ccccn3)c(-c3ccccn3)nc2c1)N1CCCCC1,"inconclusive: 1.16 µM [activator, full curve]",–
Cc1ccc(SCc2nc(-c3ccncc3)no2)cc1,"inconclusive: 29.1 µM [activator, single point]",–
